{"source": "PubChem BioAssay AID1259308 – NCATS – 2017", "aim": "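Candidate targets for better recombinant protein yield in mammalian cells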 (primary screen)", "cells": "human HEK293 embryonic kidney cells stably expressing firefly luciferase (HEK-CMV-Luc2-Hygro)", "reagents": "single siRNA against human genes, 0.8 pmol siRNA per well", "timing": "72 h", "measured": "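Luciferase light (ONE-Glo) measured on one replicate plate set and viability (CellTiter-Glo) on the other, scaled to a negative control siRNA, with robust z-scores and luciferase per cell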", "reading the numbers": "total luciferase, z-score: higher = more reporter protein produced", "hit rule": "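An siRNA counts as active if its total luciferase robust z-score exceeds 3; genes with two or more such siRNAs out of three were retested with fresh siRNAs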", "calls": "active = raised luciferase; inactive = no rise", "note": "Shown is one part, drawn at random, of about 59,000 reagents. In the full data, about 1,510 (2.6%) got an active call. 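Calls use total luciferase alone and ignore viability, so some active siRNAs may act by altering cell number.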 Unmarked entries are inactive. Reagents against one gene are numbered here. Not all columns of the deposit are shown."}
{"target":"BBS2","reagent no.":1,"total luciferase, z-score":-0.169}
{"target":"BBS2","reagent no.":2,"total luciferase, z-score":-1.9}
{"target":"BBS2","reagent no.":3,"total luciferase, z-score":0.818}
{"target":"PRNP","reagent no.":1,"total luciferase, z-score":0.259}
{"target":"PRNP","reagent no.":2,"total luciferase, z-score":-0.623}
{"target":"PRNP","reagent no.":3,"total luciferase, z-score":1.61}
{"target":"KRT79","reagent no.":1,"total luciferase, z-score":0.817}
{"target":"KRT79","reagent no.":2,"total luciferase, z-score":0.406}
{"target":"KRT79","reagent no.":3,"total luciferase, z-score":-0.796}
{"target":"COPG1","reagent no.":1,"total luciferase, z-score":0.808}
{"target":"COPG1","reagent no.":2,"total luciferase, z-score":-0.421}
{"target":"COPG1","reagent no.":3,"total luciferase, z-score":0.25}

An excerpt of the results above:
{"target":"KRT79","reagent no.":3,"total luciferase, z-score":-0.796}
{"target":"COPG1","reagent no.":1,"total luciferase, z-score":0.808}
